Values from PubChem BioAssay AID1053208 (Peter MacCallum Cancer Centre, 2014)

- Assay: 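Genes whose silencing cuts survival of bone tumour cells only with doxorubicin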 (primary screen)
- Cell system: mouse osteosarcoma cells, early-passage culture from an engineered mouse model of fibroblastic bone tumour
- Reagents: siRNA pool against mouse genes, 40 nM
- Timing: about 120 h (48 h before drug, then 72 h with drug)
- Treatment: doxorubicin 100 nM for 72 h, roughly 30-40% inhibitory dose
- Measurement: 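Viability read as ATP luminescence after 72 h of 100 nM doxorubicin or none, duplicate wells averaged, scaled to non-targeting siRNA, then expressed as robust z-scores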
- Reading the numbers: viability z-score with doxorubicin and doxorubicin viability vs non-targeting: higher = more viable cells under doxorubicin; viability z-score without drug: higher = more viable cells with knock-down alone; z-score of drug to no-drug ratio: higher = less drug sensitisation by knock-down
- Active means: 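Called active if knock-down leaves viability unchanged without drug (z within -2 to 2) but lowers it with doxorubicin (z at or under -2)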
The deposit covers about 17,000 reagents; this is an unselected part. 788 of all reagents (4.7%) count as active. 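Calls rest on z-score classes alone; an extra cut-off of viability at most 70% of control was not applied to them.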

gene | combined z-score class | viability z-score with doxorubicin | viability z-score without drug | z-score of drug to no-drug ratio | doxorubicin viability vs non-targeting | outcome
Adck2 | no change with or without drug | -0.11 | 1.18 | -0.79 | 0.93 | inactive
Or51i1 | no change with or without drug | 0.11 | -1.35 | 1.24 | 0.95 | inactive
Ferry3 | no change with or without drug | -0.79 | 0.17 | -0.79 | 0.87 | inactive
Glod5 | no change with or without drug | 0 | 0.84 | -0.45 | 0.94 | inactive
Oas1f | no change with or without drug | 1.12 | -0.51 | 1.69 | 1.04 | inactive
Pmm1 | no change with or without drug | 0 | 0.17 | 0 | 0.94 | inactive
Cdk13 | no change with or without drug | 1.8 | -0.51 | 2.47 | 1.1 | inactive
Brwd1 | no change with or without drug | -1.12 | -0.17 | -1.01 | 0.84 | inactive
Ddx28 | no change with or without drug | 0.22 | 0.51 | 0 | 0.96 | inactive
Psmd2 | no change with or without drug | -0.22 | -0.17 | 0 | 0.92 | inactive
Ntf3 | no change with or without drug | 0.34 | -0.51 | 0.79 | 0.97 | inactive
Fam3a | no change with or without drug | -0.45 | 1.01 | -1.01 | 0.9 | inactive
Pou3f3 | no change with or without drug | 0.45 | 1.85 | -0.67 | 0.98 | inactive
Tpst1 | no change with or without drug | 1.12 | -0.51 | 1.69 | 1.04 | inactive
Nprl3 | no change with or without drug | -1.12 | 0.84 | -1.57 | 0.84 | inactive
Rgs4 | no change with or without drug | 1.8 | 1.18 | 1.12 | 1.1 | inactive
Cdcp2 | no change with or without drug | 0.56 | 1.69 | -0.45 | 0.99 | inactive
Myrip | no change with or without drug | 0.9 | -0.34 | 1.35 | 1.02 | inactive
Txndc12 | no change with or without drug | 0.67 | -0.17 | 0.9 | 1 | inactive
Vmn1r45 | no change with or without drug | -1.12 | 0.67 | -1.46 | 0.84 | inactive

Next part (4 carried over from the part before).
gene | combined z-score class | viability z-score with doxorubicin | viability z-score without drug | z-score of drug to no-drug ratio | doxorubicin viability vs non-targeting | outcome
Cdcp2 | no change with or without drug | 0.56 | 1.69 | -0.45 | 0.99 | inactive
Myrip | no change with or without drug | 0.9 | -0.34 | 1.35 | 1.02 | inactive
Txndc12 | no change with or without drug | 0.67 | -0.17 | 0.9 | 1 | inactive
Vmn1r45 | no change with or without drug | -1.12 | 0.67 | -1.46 | 0.84 | inactive
Rogdi | no change with or without drug | 1.57 | 1.01 | 1.01 | 1.08 | inactive
Insig2 | no change with or without drug | 0.9 | 1.52 | 0 | 1.02 | inactive
Rusc1 | no change with or without drug | 0.45 | 0.51 | 0.22 | 0.98 | inactive
Larp4b | no change with or without drug | -0.56 | 0.51 | -0.79 | 0.89 | inactive
AI504432 | no change with or without drug | -0.22 | -1.01 | 0.56 | 0.92 | inactive
Ier3ip1 | no change with or without drug | -0.22 | 0.51 | -0.45 | 0.92 | inactive
Samd8 | low cell count without drug only | -1.57 | -2.19 | 0 | 0.8 | inactive
Nrros | no change with or without drug | -0.67 | 1.52 | -1.46 | 0.88 | inactive
Gata4 | no change with or without drug | 1.01 | -0.84 | 1.8 | 1.03 | inactive
Igf2bp1 | no change with or without drug | -0.9 | -1.01 | -0.11 | 0.86 | inactive
Synpo2l | no change with or without drug | 1.35 | -0.51 | 1.91 | 1.06 | inactive
Ccpg1 | no change with or without drug | -0.79 | -0.17 | -0.56 | 0.87 | inactive
Gpr82 | no change with or without drug | -0.9 | 0.84 | -1.35 | 0.86 | inactive
Cox4i2 | no change with or without drug | -0.11 | -0.51 | 0.34 | 0.93 | inactive
Vamp4 | no change with or without drug | -1.35 | 1.85 | -2.36 | 0.82 | inactive
Or8d23 | no change with or without drug | -0.9 | -1.35 | 0.11 | 0.86 | inactive
Ergic1 | no change with or without drug | -0.67 | -1.52 | 0.45 | 0.88 | inactive
Snph | no change with or without drug | -0.67 | -1.85 | 0.79 | 0.88 | inactive
Des | high cell count without drug only | 0.67 | 2.02 | -0.56 | 1 | inactive
Nat8f2 | no change with or without drug | -1.57 | -1.85 | -0.34 | 0.8 | inactive
Msgn1 | low cell count with and without drug | -8.77 | -13.8 | 2.81 | 0.16 | inactive
Or10a3b | no change with or without drug | 0.22 | 0.17 | 0.22 | 0.96 | inactive
Ssh2 | low cell count without drug only | -0.67 | -2.19 | 1.01 | 0.88 | inactive
Chd1 | no change with or without drug | -1.35 | -0.67 | -0.9 | 0.82 | inactive
Mtfr2 | low cell count without drug only | 0.45 | -2.36 | 2.59 | 0.98 | inactive
Frzb | no change with or without drug | 1.57 | -1.18 | 2.81 | 1.08 | inactive
Letmd1 | low cell count without drug only | -0.67 | -2.02 | 0.9 | 0.88 | inactive
Art5 | no change with or without drug | 1.57 | -0.17 | 1.91 | 1.08 | inactive
L1cam | no change with or without drug | -0.9 | 0.34 | -1.01 | 0.86 | inactive
Rap1gds1 | no change with or without drug | 0.11 | 0.34 | 0 | 0.95 | inactive
